Test results: the supplement of paper PMC12067093, “Discovery and optimisation of a covalent ligand for TRIM25 and its application to targeted protein ubiquitination” (Chemical Science, 2025)
Some of the results follow.

Chains of the proteins cited; added tags and fusions are not shown. Lines headed by an entry give the natural chain unless they say otherwise; changes in a name come on top.
UniProt Q969K3: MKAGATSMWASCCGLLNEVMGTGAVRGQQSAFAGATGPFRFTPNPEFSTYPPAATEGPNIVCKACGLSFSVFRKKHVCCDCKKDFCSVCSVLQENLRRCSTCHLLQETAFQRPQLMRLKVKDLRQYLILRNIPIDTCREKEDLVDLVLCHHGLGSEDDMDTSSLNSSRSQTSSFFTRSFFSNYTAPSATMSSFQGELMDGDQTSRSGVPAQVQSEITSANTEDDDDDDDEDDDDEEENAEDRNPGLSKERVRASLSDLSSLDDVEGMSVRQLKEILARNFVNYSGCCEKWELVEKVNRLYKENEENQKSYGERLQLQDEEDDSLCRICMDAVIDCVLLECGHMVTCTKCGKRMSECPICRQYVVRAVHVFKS
UniProt P35244: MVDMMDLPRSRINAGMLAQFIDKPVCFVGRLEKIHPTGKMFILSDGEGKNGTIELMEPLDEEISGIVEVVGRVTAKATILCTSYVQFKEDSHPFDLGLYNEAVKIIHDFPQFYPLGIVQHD
UniProt P13489: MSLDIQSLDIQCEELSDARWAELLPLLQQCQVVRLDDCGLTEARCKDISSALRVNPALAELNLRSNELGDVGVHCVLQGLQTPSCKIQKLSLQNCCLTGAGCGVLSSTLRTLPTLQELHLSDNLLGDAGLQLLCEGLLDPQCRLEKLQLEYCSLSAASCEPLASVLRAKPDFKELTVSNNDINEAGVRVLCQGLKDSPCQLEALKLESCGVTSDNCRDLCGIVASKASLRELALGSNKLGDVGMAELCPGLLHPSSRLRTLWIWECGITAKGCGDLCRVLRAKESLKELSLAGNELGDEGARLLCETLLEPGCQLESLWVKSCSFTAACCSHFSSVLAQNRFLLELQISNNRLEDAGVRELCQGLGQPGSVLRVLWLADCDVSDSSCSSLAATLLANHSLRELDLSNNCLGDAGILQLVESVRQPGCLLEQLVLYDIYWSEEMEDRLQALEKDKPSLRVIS
UniProt Q9H4P4: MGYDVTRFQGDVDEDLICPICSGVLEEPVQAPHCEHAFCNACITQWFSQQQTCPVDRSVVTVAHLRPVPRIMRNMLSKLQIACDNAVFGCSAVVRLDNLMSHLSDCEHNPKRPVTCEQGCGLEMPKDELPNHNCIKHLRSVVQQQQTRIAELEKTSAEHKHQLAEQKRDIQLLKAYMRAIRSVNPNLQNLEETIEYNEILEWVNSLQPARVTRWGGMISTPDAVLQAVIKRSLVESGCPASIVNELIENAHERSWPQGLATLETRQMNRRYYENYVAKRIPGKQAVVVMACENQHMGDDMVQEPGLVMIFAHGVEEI
UniProt O60942: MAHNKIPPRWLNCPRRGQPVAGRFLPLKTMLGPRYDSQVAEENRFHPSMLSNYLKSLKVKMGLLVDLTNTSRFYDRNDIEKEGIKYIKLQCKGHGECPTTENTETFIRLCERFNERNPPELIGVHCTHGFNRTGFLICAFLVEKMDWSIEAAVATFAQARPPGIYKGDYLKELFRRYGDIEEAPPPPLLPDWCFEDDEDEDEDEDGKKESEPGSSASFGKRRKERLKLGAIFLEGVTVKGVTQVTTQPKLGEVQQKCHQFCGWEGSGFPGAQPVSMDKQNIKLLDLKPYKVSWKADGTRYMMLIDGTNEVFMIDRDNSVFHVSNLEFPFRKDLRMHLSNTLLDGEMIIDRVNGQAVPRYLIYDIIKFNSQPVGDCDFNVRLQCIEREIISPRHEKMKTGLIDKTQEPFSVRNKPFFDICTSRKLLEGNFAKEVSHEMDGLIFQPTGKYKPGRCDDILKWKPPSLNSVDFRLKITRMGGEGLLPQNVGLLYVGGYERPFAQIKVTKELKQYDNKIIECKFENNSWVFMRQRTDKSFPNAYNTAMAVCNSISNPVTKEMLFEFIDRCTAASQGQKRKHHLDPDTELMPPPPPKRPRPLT
UniProt O75695: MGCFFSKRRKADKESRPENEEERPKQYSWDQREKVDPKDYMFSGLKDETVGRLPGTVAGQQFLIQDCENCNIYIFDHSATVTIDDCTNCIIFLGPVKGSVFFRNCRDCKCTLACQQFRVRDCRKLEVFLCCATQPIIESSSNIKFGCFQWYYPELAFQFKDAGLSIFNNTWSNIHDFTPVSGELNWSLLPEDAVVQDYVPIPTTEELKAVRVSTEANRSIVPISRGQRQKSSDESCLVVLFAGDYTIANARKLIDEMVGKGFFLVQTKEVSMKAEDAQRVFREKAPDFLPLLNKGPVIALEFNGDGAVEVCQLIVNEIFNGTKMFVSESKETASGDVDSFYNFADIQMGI
UniProt Q9P0P0: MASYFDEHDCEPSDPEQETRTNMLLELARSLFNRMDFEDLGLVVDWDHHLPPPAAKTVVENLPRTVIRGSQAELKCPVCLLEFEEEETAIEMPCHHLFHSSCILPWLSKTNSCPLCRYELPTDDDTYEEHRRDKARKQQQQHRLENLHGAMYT
UniProt Q13464: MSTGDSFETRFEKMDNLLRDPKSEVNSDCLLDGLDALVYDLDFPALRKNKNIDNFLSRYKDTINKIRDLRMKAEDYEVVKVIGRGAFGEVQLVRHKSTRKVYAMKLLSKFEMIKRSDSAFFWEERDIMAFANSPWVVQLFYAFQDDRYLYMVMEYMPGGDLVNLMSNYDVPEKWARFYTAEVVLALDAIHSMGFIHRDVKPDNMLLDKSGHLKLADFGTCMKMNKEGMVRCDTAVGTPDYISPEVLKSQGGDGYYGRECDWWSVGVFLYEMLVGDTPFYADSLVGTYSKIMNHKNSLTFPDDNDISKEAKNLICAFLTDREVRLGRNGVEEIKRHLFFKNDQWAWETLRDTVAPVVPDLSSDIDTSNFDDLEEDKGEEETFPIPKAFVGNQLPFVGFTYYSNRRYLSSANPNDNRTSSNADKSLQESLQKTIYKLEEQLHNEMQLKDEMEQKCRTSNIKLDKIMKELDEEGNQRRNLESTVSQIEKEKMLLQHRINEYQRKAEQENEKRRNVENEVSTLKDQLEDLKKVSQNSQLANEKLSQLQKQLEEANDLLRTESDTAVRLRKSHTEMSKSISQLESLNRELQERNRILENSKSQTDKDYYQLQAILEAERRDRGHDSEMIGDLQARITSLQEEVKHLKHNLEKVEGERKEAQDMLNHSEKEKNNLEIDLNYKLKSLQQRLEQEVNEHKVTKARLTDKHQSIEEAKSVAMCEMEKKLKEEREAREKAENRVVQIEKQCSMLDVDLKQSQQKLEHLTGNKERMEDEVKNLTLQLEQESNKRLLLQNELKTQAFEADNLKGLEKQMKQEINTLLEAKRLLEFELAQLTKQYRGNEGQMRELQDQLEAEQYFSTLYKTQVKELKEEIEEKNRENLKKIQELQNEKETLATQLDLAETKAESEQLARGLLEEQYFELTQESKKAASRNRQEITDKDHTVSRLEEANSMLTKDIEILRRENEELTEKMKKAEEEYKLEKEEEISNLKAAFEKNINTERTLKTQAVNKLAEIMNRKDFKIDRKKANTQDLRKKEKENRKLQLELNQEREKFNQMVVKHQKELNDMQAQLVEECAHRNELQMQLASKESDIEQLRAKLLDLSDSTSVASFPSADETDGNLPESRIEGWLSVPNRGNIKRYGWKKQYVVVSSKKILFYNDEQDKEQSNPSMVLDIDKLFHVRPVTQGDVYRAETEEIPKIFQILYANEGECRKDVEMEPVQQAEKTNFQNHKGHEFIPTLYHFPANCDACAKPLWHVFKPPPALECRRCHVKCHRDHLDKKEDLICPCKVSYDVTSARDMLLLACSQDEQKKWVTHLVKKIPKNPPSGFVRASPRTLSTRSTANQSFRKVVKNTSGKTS
UniProt O43148, whole entry, looked up: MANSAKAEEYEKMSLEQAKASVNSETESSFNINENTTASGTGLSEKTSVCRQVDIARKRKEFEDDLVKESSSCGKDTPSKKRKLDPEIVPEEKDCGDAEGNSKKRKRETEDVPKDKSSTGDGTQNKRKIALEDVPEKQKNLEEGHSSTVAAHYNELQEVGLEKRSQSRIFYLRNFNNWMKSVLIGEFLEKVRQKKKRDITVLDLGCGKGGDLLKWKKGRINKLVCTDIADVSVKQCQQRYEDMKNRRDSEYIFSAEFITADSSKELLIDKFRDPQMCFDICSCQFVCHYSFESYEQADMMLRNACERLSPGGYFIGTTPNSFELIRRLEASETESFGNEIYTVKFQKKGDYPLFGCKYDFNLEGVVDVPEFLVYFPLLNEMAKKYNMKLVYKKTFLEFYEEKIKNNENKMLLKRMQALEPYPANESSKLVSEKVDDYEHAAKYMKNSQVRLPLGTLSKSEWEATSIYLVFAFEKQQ
UniProt P78345: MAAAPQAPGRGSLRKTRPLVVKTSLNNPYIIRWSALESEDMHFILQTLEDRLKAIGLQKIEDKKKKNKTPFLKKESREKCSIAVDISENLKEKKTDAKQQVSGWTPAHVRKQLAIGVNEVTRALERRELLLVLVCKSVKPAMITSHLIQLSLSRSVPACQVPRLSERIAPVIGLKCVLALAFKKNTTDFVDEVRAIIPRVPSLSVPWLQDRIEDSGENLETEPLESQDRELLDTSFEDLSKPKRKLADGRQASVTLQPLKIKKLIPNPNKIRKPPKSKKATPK
UniProt Q96P16: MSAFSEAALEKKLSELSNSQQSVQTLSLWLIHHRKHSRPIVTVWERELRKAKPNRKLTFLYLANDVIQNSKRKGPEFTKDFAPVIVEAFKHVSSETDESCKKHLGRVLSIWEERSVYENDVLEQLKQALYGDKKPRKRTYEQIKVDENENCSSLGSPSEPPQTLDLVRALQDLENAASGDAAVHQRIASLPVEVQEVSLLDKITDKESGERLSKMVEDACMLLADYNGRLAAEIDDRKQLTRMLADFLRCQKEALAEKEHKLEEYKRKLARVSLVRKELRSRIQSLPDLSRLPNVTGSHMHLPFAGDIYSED
UniProt O75116: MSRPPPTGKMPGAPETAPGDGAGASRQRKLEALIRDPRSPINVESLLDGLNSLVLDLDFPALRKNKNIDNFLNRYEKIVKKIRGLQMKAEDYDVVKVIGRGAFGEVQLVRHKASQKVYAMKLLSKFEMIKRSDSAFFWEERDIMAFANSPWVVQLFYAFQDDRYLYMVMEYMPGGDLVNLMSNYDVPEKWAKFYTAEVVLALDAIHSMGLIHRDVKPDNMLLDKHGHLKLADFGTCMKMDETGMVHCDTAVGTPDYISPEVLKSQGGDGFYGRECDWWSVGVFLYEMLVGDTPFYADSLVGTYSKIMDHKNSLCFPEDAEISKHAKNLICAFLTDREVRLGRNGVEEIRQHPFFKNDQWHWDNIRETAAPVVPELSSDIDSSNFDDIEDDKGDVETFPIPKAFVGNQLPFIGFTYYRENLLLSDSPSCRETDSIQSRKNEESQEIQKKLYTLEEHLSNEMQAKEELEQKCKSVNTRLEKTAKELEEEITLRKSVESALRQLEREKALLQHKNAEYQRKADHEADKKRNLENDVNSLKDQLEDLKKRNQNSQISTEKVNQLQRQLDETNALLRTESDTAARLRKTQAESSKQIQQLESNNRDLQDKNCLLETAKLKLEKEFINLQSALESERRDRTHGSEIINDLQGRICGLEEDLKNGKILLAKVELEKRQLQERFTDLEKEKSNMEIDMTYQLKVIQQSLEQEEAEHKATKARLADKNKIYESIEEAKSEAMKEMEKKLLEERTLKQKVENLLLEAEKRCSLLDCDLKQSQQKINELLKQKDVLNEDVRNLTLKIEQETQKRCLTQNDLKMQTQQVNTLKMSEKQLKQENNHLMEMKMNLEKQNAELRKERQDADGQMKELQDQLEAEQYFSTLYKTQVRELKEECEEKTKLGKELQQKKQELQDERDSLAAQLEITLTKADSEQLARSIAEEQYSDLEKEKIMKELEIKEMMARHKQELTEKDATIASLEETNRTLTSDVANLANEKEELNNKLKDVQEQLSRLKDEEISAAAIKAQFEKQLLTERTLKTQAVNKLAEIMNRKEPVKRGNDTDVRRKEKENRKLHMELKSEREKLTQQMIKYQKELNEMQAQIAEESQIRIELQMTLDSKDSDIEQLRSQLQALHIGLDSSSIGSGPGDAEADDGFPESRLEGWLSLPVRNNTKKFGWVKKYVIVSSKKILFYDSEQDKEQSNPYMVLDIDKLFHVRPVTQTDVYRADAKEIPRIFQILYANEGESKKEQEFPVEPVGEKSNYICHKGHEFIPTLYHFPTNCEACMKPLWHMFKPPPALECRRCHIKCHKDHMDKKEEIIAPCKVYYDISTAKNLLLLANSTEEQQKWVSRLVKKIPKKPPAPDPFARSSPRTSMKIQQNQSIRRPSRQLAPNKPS
UniProt Q9H7B2: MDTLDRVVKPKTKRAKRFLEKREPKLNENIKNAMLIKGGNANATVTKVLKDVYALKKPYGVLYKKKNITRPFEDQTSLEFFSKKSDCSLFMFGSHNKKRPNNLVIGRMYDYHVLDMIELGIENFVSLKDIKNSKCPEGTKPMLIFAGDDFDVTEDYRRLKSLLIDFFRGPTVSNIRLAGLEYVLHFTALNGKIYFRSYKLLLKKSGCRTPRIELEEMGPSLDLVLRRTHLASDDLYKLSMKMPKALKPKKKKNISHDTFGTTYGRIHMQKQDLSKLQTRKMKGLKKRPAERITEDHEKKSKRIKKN

Each target was assayed with Cc1cc(ccc1-c1ccccc1)C(=O)N1CCCN(CC1)C(=O)CCl [compound 10] (assay: probe-labelled cysteine peptide fold change vs DMSO (competition) (log2 fold change); higher = less target engagement (more negative = stronger competition)). Conditions: 50 µM; THP-1; incubation time: 4 h.
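Note: competitive profiling in live THP-1 cells: cysteine peptides tagged with an iodoacetamide desthiobiotin (IA-DTB) probe, intensity after compound treatment relative to DMSO-treated cells.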

Q: How did the “probe-labelled cysteine peptide fold change” value turn out when “RPL18A_Q02543_64_SSGEIVYCGQVFEK (UniProt Q02543)” was run?
A: The value was 0.188.

Q: How did the “probe-labelled cysteine peptide fold change” value turn out when “RPL17_P18621_144_INPYMSSPCHIEMILTEK (UniProt P18621)” was run?
A: Its value is -0.393.

Q: How did the “probe-labelled cysteine peptide fold change” value turn out when “RPL37A_P61513_57_AVGIWHCGSCMK (UniProt P61513)” was run?
A: The value was -0.185.

Q: For “RNF34_Q969K3_340_ICMDAVIDCVLLECGHMVTCTK (UniProt Q969K3)”, which “probe-labelled cysteine peptide fold change” value is on record?
A: Its value is -0.136.

Q: How did the “probe-labelled cysteine peptide fold change” value turn out when “RPL11_P62913_150_TGCIGAK (UniProt P62913)” was run?
A: The value was -0.152.

Q: How did the “probe-labelled cysteine peptide fold change” value turn out when “RPL5_P46777_76_IEGDMIVCAAYAHELPK (UniProt P46777)” was run?
A: Its value is 0.199.

Q: With “RPA3_P35244_81_ATILCTSYVQFK (UniProt P35244)” as the target, how does the “probe-labelled cysteine peptide fold change” value read?
A: Its value is 0.383.

Q: For “RNH1_P13489_152+159_LQLEYCSLSAASCEPLASVLR (UniProt P13489)”, which “probe-labelled cysteine peptide fold change” value is on record?
A: Its value is -0.309.

Q: How did the “probe-labelled cysteine peptide fold change” value turn out when “RNF41_Q9H4P4_238_SLVESGCPASIVNELIENAHER (UniProt Q9H4P4)” was run?
A: Its value is 0.0571.

Q: How did the “probe-labelled cysteine peptide fold change” value turn out when “RNGTT_O60942_453_CDDILK (UniProt O60942)” was run?
A: Its value is -0.116.

Q: “RP2_O75695_114_CTLACQQFR (UniProt O75695)” was tested. Which “probe-labelled cysteine peptide fold change” value did it give?
A: The value was -0.0122.

Q: For “RNF181_Q9P0P0_116_TNSCPLCR (UniProt Q9P0P0)”, which “probe-labelled cysteine peptide fold change” value is on record?
A: The value was -0.333.

Q: “ROCK1_Q13464_1242+1245_GHEFIPTLYHFPANCDACAK (UniProt Q13464)” was tested. Which “probe-labelled cysteine peptide fold change” value did it give?
A: Its value is -0.193.

Q: How did the “probe-labelled cysteine peptide fold change” value turn out when “RPL18A_Q02543_109_EYRDLTTAGAVTQCYR (UniProt Q02543)” was run?
A: The value was -0.818.

Q: With “RPL37A_P61513_57+60_AVGIWHCGSCMK (UniProt P61513)” as the target, how does the “probe-labelled cysteine peptide fold change” value read?
A: The value was -0.311.

Q: Which “probe-labelled cysteine peptide fold change” value does the source give for “RNMT_O43148_225_LVCTDIADVSVK (UniProt O43148)” here?
A: The value was 0.135.

Q: With “RPL8_P62917_90_RTELFIAAEGIHTGQFVYCGKK (UniProt P62917)” as the target, how does the “probe-labelled cysteine peptide fold change” value read?
A: The value was -0.389.

Q: “RNF213_Q63HN8_1064_LCGTDEK (UniProt Q63HN8)” was tested. Which “probe-labelled cysteine peptide fold change” value did it give?
A: Its value is 0.0992.

Q: With “RNH1_P13489_199_DSPCQLEALK (UniProt P13489)” as the target, how does the “probe-labelled cysteine peptide fold change” value read?
A: Its value is -0.166.

Q: Which “probe-labelled cysteine peptide fold change” value does the source give for “RPL4_P36578_250_FCIWTESAFR (UniProt P36578)” here?
A: The value was 0.0436.

Q: “RPP38_P78345_80_CSIAVDISENLK (UniProt P78345)” was tested. Which “probe-labelled cysteine peptide fold change” value did it give?
A: The value was -0.313.

Q: With “RPRD1A_Q96P16_151_VDENENCSSLGSPSEPPQTLDLVR (UniProt Q96P16)” as the target, how does the “probe-labelled cysteine peptide fold change” value read?
A: Its value is -0.00533.

Q: How did the “probe-labelled cysteine peptide fold change” value turn out when “RNH1_P13489_330_SCSFTAACCSHFSSVLAQNR (UniProt P13489)” was run?
A: The value was 0.109.

Q: Which “probe-labelled cysteine peptide fold change” value does the source give for “RPL24_P83731_6_VELCSFSGYK (UniProt P83731)” here?
A: Its value is 0.092.

Q: “RPIA_P49247_128_VKQENLNLVCIPTSFQAR (UniProt P49247)” was tested. Which “probe-labelled cysteine peptide fold change” value did it give?
A: Its value is -0.115.

Q: “RPL5_P46777_62_DIICQIAYAR (UniProt P46777)” was tested. Which “probe-labelled cysteine peptide fold change” value did it give?
A: The value was 0.0825.

Q: How did the “probe-labelled cysteine peptide fold change” value turn out when “RNMT_O43148_356_KGDYPLFGCK (UniProt O43148)” was run?
A: Its value is 0.29.

Q: With “ROCK2_O75116_428_ENLLLSDSPSCR (UniProt O75116)” as the target, how does the “probe-labelled cysteine peptide fold change” value read?
A: Its value is -0.605.

Q: “ROCK2_O75116_314_NSLCFPEDAEISK (UniProt O75116)” was tested. Which “probe-labelled cysteine peptide fold change” value did it give?
A: The value was -0.115.

Q: Which “probe-labelled cysteine peptide fold change” value does the source give for “RPL12_P30050_141_EILGTAQSVGCNVDGR (UniProt P30050)” here?
A: Its value is 0.0259.

Q: “RNF213_Q63HN8_2503_EVLCDHMVDGQPLAEDSGLHIIAACNPYRK (UniProt Q63HN8)” was tested. Which “probe-labelled cysteine peptide fold change” value did it give?
A: The value was -0.149.

Q: How did the “probe-labelled cysteine peptide fold change” value turn out when RPF2_Q9H7B2_135_CPEGTK (UniProt Q9H7B2) was run?
A: Its value is 0.605.

Q: Which “probe-labelled cysteine peptide fold change” value does the source give for “RPL30_P62888_92_VCTLAIIDPGDSDIIR (UniProt P62888)” here?
A: The value was -0.0287.

Q: Which “probe-labelled cysteine peptide fold change” value does the source give for “RPL8_P62917_90_TELFIAAEGIHTGQFVYCGK (UniProt P62917)” here?
A: The value was -0.0679.

Q: How did the “probe-labelled cysteine peptide fold change” value turn out when “RNF169_Q8NCN4_337_CVSAPDLTIEK (UniProt Q8NCN4)” was run?
A: Its value is -0.147.

Q: Which “probe-labelled cysteine peptide fold change” value does the source give for “RPA1_P27694_476_ENCMYQACPTQDCNK (UniProt P27694)” here?
A: Its value is 0.371.

Q: With “RP2_O75695_131_LEVFLCCATQPIIESSSNIK (UniProt O75695)” as the target, how does the “probe-labelled cysteine peptide fold change” value read?
A: The value was 0.362.

Q: Which “probe-labelled cysteine peptide fold change” value does the source give for “RNF213_Q63HN8_3084_DQEYTQLCR (UniProt Q63HN8)” here?
A: Its value is -0.0867.
